Values of other authors in patent US8173657B2, “Imidazoquinoxaline compounds as immunomodulators” (Novartis AG, priority 2006, dated 2012).
At least one compound was matched to its structure with a doubt left.

System: TNF-α
Conditions: Pope et al. Cellular Immunology 162: 333-339 (1995); cited from earlier work

C=CCn1c(=O)n([C@@H]2O[C@H](CO)[C@@H](O)[C@H]2O)c2nc(N)[nH]c(=O)c21 [Loxoribine, 7-allyl-8-oxoguanosine]
concentration causing useful production of TNF-α: 300 µM
